The values below come from patent US20260232769A1 (WUXI BIOLOGICS IRELAND, published 2026).

Protein sequences, listed by entry. Tags and fused reporters are not part of them. Lines headed by an entry give the natural chain unless they say otherwise; changes in a name come on top. Residues count along the entry.
UniProt Q15116, residues 25-288: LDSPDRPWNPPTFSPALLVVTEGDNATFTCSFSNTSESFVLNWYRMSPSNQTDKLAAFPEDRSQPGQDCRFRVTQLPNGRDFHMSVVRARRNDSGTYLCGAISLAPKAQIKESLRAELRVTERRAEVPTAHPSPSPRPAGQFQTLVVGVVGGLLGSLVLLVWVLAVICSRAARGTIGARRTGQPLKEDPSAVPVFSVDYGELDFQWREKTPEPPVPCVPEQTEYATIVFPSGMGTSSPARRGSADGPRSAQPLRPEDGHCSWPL

These are yes or no findings as the source states them, for the method shown. Some results given as binding are weak or reduced against the parent protein; the word gives no strength.

For this assay, the target named is PD-1 (on CHO-PD1 engineered cell line; on activated CD8+ T cells) (UniProt Q15116). Briefly: flow cytometry (FACS, MFI) on CHO-PD1 cells, PE-anti-human Fc detection.

B1: W3XX115-U3T3.F114-1.uIgG4V322 (antibody)
heavy 1: QVQLVQSGAEVKKPGSSVKVSCKASGFTFTTYYISWVRQAPGQGLEYLGYINMGSGGTNYNEKFKGRVTITADKSTSTAYMELSSLRSEDTAVYYCAIIGYFDYWGQGTMVTVSSASTKGPSVFPLAPCSRSTSESTAALGCLVKDYFPEPVTVSWNSGALTSGVHTFPAVLQSSGLYSLSSVVTVPSSSLGTKTYTCNVDHKPSNTKVDKRVESKYGPPCPPCPAPEAAGGPSVFLFPPKPKDTLMISRTPEVTCVVVDVSQEDPEVQFNWYVDGVEVHNAKTKPREEQFNSTYRVVSVLTVLHQDWLNGKEYKCKVSNKGLPSSIEKTISKAKGQPREPQVYTLPPCQEEMTKNQVSLWCLVKGFYPSDIAVEWESNGQPENNYKTTPPVLDSDGSFFLYSRLTVDKSRWQEGNVFSCSVMHEALHNHYTQKSLSLSLGGGGGSGGGGSGGGGSGGGGSAPTSSSTKKTQLQLEHLLLDLQMILNGINNYKNPKLTRMLTAKFAMPKKATELKHLQCLEEELKPLEEVLNGAQSKNFHLRPRDLISNINVIVLELKGSETTFMCEYADETATIVEFLNRWITFCQSIISTLT
heavy 2: QVQLVQSGAEVKKPGSSVKVSCKASGFTFTTYYISWVRQAPGQGLEYLGYINMGSGGTNYNEKFKGRVTITADKSTSTAYMELSSLRSEDTAVYYCAIIGYFDYWGQGTMVTVSSASTKGPSVFPLAPCSRSTSESTAALGCLVKDYFPEPVTVSWNSGALTSGVHTFPAVLQSSGLYSLSSVVTVPSSSLGTKTYTCNVDHKPSNTKVDKRVESKYGPPCPPCPAPEAAGGPSVFLFPPKPKDTLMISRTPEVTCVVVDVSQEDPEVQFNWYVDGVEVHNAKTKPREEQFNSTYRVVSVLTVLHQDWLNGKEYKCKVSNKGLPSSIEKTISKAKGQPREPQVCTLPPSQEEMTKNQVSLSCAVKGFYPSDIAVEWESNGQPENNYKTTPPVLDSDGSFFLVSRLTVDKSRWQEGNVFSCSVMHEALHNHYTQKSLSLSLGK
light: DVVMTQSPLSLPVTLGQPASISCRSSQSLLDSDGGTYLYWFQQRPGQSPRRLIYLVSTLGSGVPDRFSGSGSGTDFTLKISRVEAEDVGVYYCMQLTHWPYTFGQGTKLEIKRTVAAPSVFIFPPSDEQLKSGTASVVCLLNNFYPREAKVQWKVDNALQSGNSQESVTEQDSKDSTYSLSSTLTLSKADYEKHKVYACEVTHQGLSSPVTKSFNRGEC
Regarding B1, the binding entry is “binds”.

B2: W3XX115-T2U3.E44-15.uIgG4V322 (Fc fusion)
chain: APTSSSTKKTQLQLEHLLLDLQMILNGINNYKNPKLTRMLTVKFYMPKKATELKHLQCLEEELKPLEEVLNLAQSKNFHLRPRDLISNINVIVLELKGSETTFMCEYADETATIVEFLNRWITFCQSIIESKYGPPCPPCPAPEAAGGPSVFLFPPKPKDTLMISRTPEVTCVVVDVSQEDPEVQFNWYVDGVEVHNAKTKPREEQFNSTYRVVSVLTVLHQDWLNGKEYKCKVSNKGLPSSIEKTISKAKGQPREPQVYTLPPCQEEMTKNQVSLWCLVKGFYPSDIAVEWESNGQPENNYKTTPPVLDSDGSFFLYSRLTVDKSRWQEGNVFSCSVMHEALHNHYTQKSLSLSLGK
heavy: QVQLVQSGAEVKKPGSSVKVSCKASGFTFTTYYISWVRQAPGQGLEYLGYINMGSGGTNYNEKFKGRVTITADKSTSTAYMELSSLRSEDTAVYYCAIIGYFDYWGQGTMVTVSSASTKGPSVFPLAPCSRSTSESTAALGCLVKDYFPEPVTVSWNSGALTSGVHTFPAVLQSSGLYSLSSVVTVPSSSLGTKTYTCNVDHKPSNTKVDKRVESKYGPPCPPCPAPEAAGGPSVFLFPPKPKDTLMISRTPEVTCVVVDVSQEDPEVQFNWYVDGVEVHNAKTKPREEQFNSTYRVVSVLTVLHQDWLNGKEYKCKVSNKGLPSSIEKTISKAKGQPREPQVCTLPPSQEEMTKNQVSLSCAVKGFYPSDIAVEWESNGQPENNYKTTPPVLDSDGSFFLVSRLTVDKSRWQEGNVFSCSVMHEALHNHYTQKSLSLSLGK
light: DVVMTQSPLSLPVTLGQPASISCRSSQSLLDSDGGTYLYWFQQRPGQSPRRLIYLVSTLGSGVPDRFSGSGSGTDFTLKISRVEAEDVGVYYCMQLTHWPYTFGQGTKLEIKRTVAAPSVFIFPPSDEQLKSGTASVVCLLNNFYPREAKVQWKVDNALQSGNSQESVTEQDSKDSTYSLSSTLTLSKADYEKHKVYACEVTHQGLSSPVTKSFNRGEC
Turning to B2, the binding entry is on record as “binds”.
